## Percent effect of library compounds

Protein sequences, listed by entry. Tags and fused reporters are not part of them. Residues count along the entry.
UniProt P9WNZ1, whole entry: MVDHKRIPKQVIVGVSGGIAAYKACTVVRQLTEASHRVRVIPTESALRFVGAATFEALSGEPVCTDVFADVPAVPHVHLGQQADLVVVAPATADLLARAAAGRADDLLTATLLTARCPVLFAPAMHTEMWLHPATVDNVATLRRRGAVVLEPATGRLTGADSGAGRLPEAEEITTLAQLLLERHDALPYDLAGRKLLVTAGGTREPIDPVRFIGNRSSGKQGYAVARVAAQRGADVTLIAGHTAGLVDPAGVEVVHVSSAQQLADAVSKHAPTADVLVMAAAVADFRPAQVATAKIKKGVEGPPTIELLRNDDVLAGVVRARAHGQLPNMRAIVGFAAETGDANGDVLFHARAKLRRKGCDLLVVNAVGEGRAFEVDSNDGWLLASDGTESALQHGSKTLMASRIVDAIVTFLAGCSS
UniProt P9WFT3, whole entry: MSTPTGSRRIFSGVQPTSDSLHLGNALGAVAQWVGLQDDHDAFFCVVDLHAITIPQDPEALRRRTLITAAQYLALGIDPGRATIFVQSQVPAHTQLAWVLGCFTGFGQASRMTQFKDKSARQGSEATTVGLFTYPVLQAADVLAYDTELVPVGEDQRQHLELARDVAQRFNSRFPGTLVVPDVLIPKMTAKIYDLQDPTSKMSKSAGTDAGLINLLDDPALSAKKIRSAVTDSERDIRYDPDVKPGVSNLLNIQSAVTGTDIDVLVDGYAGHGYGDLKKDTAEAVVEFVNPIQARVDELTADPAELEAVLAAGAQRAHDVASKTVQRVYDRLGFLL
UniProt P9WPC5, whole entry: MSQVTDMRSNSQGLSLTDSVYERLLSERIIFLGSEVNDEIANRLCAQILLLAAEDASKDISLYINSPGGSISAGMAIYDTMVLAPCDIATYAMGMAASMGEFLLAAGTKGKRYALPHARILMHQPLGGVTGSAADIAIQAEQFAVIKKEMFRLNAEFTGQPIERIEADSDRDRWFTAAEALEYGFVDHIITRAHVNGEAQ
UniProt P9WPC3, whole entry partner: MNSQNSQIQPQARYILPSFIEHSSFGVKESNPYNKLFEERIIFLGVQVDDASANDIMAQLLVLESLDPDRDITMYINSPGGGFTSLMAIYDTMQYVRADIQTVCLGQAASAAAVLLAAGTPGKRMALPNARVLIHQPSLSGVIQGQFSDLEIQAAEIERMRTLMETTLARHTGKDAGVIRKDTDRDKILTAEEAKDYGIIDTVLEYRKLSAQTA
UniProt A4I591, 1-473: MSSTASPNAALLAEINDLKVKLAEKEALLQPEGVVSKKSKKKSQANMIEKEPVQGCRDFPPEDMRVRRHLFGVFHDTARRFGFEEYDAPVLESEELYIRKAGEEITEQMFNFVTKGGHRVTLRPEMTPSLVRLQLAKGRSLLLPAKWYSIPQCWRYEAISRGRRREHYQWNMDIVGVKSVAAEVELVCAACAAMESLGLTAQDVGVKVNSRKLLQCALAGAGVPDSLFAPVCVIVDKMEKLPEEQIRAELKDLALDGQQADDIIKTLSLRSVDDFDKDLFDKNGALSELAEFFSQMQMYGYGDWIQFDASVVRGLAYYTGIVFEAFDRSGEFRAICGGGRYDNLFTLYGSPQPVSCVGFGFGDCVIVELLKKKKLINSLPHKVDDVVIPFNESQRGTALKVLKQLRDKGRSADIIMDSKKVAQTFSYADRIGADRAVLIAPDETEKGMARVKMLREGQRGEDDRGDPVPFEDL
UniProt Q4DA54, 1-478: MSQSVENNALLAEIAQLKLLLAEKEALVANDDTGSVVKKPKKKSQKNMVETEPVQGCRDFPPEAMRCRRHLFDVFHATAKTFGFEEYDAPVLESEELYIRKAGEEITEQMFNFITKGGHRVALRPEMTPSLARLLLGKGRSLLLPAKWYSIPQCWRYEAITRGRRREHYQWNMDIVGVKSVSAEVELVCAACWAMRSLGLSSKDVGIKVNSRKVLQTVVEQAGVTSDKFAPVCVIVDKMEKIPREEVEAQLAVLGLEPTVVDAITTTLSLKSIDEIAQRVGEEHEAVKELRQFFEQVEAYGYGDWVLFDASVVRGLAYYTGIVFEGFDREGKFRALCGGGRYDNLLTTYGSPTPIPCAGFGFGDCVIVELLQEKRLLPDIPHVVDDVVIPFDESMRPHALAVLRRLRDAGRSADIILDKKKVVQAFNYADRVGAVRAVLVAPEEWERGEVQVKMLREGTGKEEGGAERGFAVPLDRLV

CoaBC: 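Enzyme assay of CoaBC with a phosphate dye (Biomol Green) read at 650 nm. Target: Coenzyme A biosynthesis protein CoaBC, Mycobacterium tuberculosis (UniProt P9WNZ1). Tested at 30 µM. Higher reads as stronger inhibition, judged from the few compounds that gave an IC50. Most strong results did not repeat in a second test. About 67,000 compounds were tested under these conditions; 0.06% (about 40) showed 50% or more at least once.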
MtTrpRS: 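Enzyme assay of tryptophanyl-tRNA synthetase; the read-out is not stated. Target: Tryptophan-tRNA ligase, Mycobacterium tuberculosis (UniProt P9WFT3). Tested at 10 µM. Higher most likely means stronger inhibition; the record gives no direction and few retests gave an IC50. Size under these conditions: about 65,000 compounds, about 64 of them at 50% or above in at least one test.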
ClpP1P2: 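Protease assay of ClpP1P2, read by the AMC dye that it sets free. Target: ClpP1P2, Mycobacterium tuberculosis (UniProt P9WPC5 and UniProt P9WPC3). Tested at 50 µM. Higher reads as stronger inhibition, judged from the few compounds that gave an IC50. Most other retested compounds had strongly negative values. Of about 69,000 compounds tested this way, about 10 (0.015%) reached 50% or more in at least one test.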
LiHisRS: 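Enzyme assay of histidyl-tRNA synthetase; the read-out is not stated. Target: Histidine-tRNA ligase, Leishmania infantum (UniProt A4I591). Tested at 30 µM. Direction is inferred from retests: higher values go with stronger inhibition. The assay is labelled LdHisRS but filed under L. infantum. Size under these conditions: about 69,000 compounds, about 410 of them at 50% or above in at least one test.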
TcHisRS: 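Enzyme assay of histidyl-tRNA synthetase; the read-out is not stated. Target: Histidine-tRNA ligase, Trypanosoma cruzi CL Brener (UniProt Q4DA54). Compounds at 30 µM. Higher reads as stronger inhibition (inferred: compounds with an IC50 in retests scored well above the rest). About 69,000 compounds were tested under these conditions; 0.045% (about 31) showed 50% or more at least once.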

Each number is a percent effect as filed. The controls that fix the scale are not given in the record; negative values are as filed. The compounds are a random part of those screened. A dash means the value is not listed here; it may have been measured.

| # | compound | CoaBC | MtTrpRS | ClpP1P2 | LiHisRS | TcHisRS |
|---|---|---|---|---|---|---|
| 1 | `COCCn1cc(C(=O)N2CCCC2c2ccc(F)cc2)ccc1=O` (configuration not stated) | 0.7335% | -1.958% | -6.849% | 11.29% | 2.062% |
| 2 | `Cc1noc(C)c1CNC(=O)C(C)Oc1ccccc1F` (configuration not stated) | 0.7353% | -1.111% | -8.889% | 8.889% | 13.1% |
| 3 | `COc1ncccc1C(=O)NCC1Cc2ccccc2O1` (configuration not stated) | -4.904% | -0.784% | 3.573% | 15.38% | 1.653% |
| 4 | `O=S(=O)(CCNCc1ccc2c(c1)CCO2)N1CCOCC1` | -6.61% | -4.257% | -5.075% | -3.846% | 5% |
| 5 | `O=C1CCC2(CCCN(C(=O)Cc3ccccn3)C2)N1` (configuration not stated) | 2.036% | -4.931% | -3.542% | 17.48% | 3.883% |
| 6 | `COc1ccc(CN(Cc2ccccn2)Cc2cncn2C)cc1` | -3.155% | -6.413% | -38.38% | 20% | 12.64% |
| 7 | `c1coc(-c2nnc(CN3CCCC3Cn3cncn3)o2)c1` (configuration not stated) | 0.2389% | -1.885% | -9.099% | 15.38% | 5.143% |
| 8 | `CCN(CC)C(C(=O)Nc1ccc2c(c1)CCC(=O)N2)c1ccccc1` (configuration not stated) | -12.9% | -4.964% | -2.367% | 12.28% | 5.882% |
| 9 | `Cc1ncc(CNCC(=O)NC2CCCCC2)n1-c1ccccc1` | 0.8065% | -2.391% | 6.053% | 26.32% | 1.676% |
| 10 | `CC1CN(Cc2ccc(-n3cccn3)cc2)CCO1` (configuration not stated) | 1.05% | -8.825% | 0.3218% | 13.56% | 5.714% |
| 11 | `NC(=O)N1C[C@H](NC(=O)c2cscn2)[C@@H]2OCCC[C@@H]21` | -1.728% | - | 7.717% | 13.64% | 9.524% |
| 12 | `Cc1cc(NC2CC3(CCN(Cc4csc(C)n4)C3)C2)ncn1` (configuration not stated) | 5.251% | -2.64% | -7.621% | 5.369% | 0.8571% |
| 13 | `Cc1nnc(CN(C)CC(=O)N2CCCN(C3CCCC3)CC2)n1C` | 4.785% | -2.549% | 5.381% | 15.69% | 14.81% |
| 14 | `CCOCC1CN(S(=O)(=O)C2CC2)Cc2ncn(CC3CC3)c21` (configuration not stated) | 4.444% | -3.358% | -0.7836% | 2.778% | 3.738% |
| 15 | `CN(C)CCN1CCN(C(=O)c2ccn(C)c(=O)c2)CC1` | 7.761% | -5.751% | 24.3% | 9.565% | 3.38% |
| 16 | `COc1cccc(CC(=O)N2CCC(O)(C(F)(F)F)C2)c1` (configuration not stated) | 1.266% | -4.595% | -6.708% | -6.494% | 0.4926% |
| 17 | `CO[C@H]1CCN(Cc2cnn(C)c2)[C@@H]2CN(Cc3cccnc3)C[C@H]12` | -1.75% | 0.804% | 14.66% | 13.59% | -4.918% |
| 18 | `O=C(CCn1ccc2cc(Br)ccc21)NCc1ccc(C(=O)O)cc1` | 3.374% | -0.3178% | -3.105% | 48.57% | -2.174% |
| 19 | `CC(C)n1ccnc1C1CCN(C(=O)c2ccc(SCCO)cc2)CC1` | 1.568% | -3.406% | -14.21% | 10.4% | 3.518% |
| 20 | `Cc1cc(C)n(-c2cncc(NCCNC(=O)CC3CCCC3)n2)n1` | -6.167% | 6.706% | -357.8% | 24.53% | -3.39% |
| 21 | `CC(=O)NCCNC(=O)c1cnc(-c2ccc(C)cc2C)s1` | 3.143% | -6.78% | -22.38% | 9.649% | 1.453% |
| 22 | `CCOC[C@@H]1CC[C@H]2[C@H](CCN2S(=O)(=O)c2ccc(F)cc2)O1` | 4.459% | -3.434% | -10.06% | 0.885% | 7.2% |
| 23 | `CC(C)(C#N)C(=O)N1CCCC(c2cc(C(F)(F)F)[nH]n2)C1` (configuration not stated) | 8.769% | -4.179% | 10.35% | -52.31% | 0.3831% |
| 24 | `Cc1nc(C)n(CC2CCCN(CCOc3cccc(F)c3)C2)n1` (configuration not stated) | 11.06% | -1.089% | -16.06% | 1.754% | 0.8596% |
| 25 | `N#Cc1cccc(C(=O)Nc2ccc([C@@H](O)[C@H]3COCC(=O)N3)cc2)c1` | 19.06% | -2.975% | -4.66% | 16.22% | 6.468% |
| 26 | `CS(=O)(=O)NCCCN1CCCC1c1ccsc1` (configuration not stated) | -1.837% | -0.8023% | -39.44% | 18.64% | 9.143% |
| 27 | `Cn1ncc2c(NCCn3cccc3)nc(C3CCCC3)nc21` | 4.242% | -1.077% | -3.516% | 20.97% | 8.163% |
| 28 | `CC1C(=O)NCCN1CCOc1ccc(C#N)cc1` (configuration not stated) | 6.399% | -0.9181% | 1.586% | 20.48% | 10.45% |
| 29 | `CC(C)N1CCC2(CCCN(Cc3ccc(F)cc3)C2=O)C1` (configuration not stated) | 5.366% | 1.806% | -23.93% | 22.4% | -2.941% |
| 30 | `CC1=C(C#N)C(=O)N(C)C(=O)/C1=C\C1=Cc2ccccc2OC1` | 0% | -0.6303% | 1.451% | 92.11% | 0.5848% |
| 31 | `CN(C)C(=O)c1cc(S(=O)(=O)N2CCCC2Cn2ccnc2)cn1C` (configuration not stated) | - | -4.85% | 13.47% | 22.86% | 7.792% |
| 32 | `c1cncc(CN2CCCCC2c2ccc(Nc3cnccn3)nc2)c1` (configuration not stated) | -13.56% | -7.124% | -15.53% | 14.08% | 3.03% |
| 33 | `COc1ccc(CN(C)Cn2cc(C)n(-c3cc(C)on3)c2=O)cc1` | 3.452% | -5.575% | 3.575% | 10.42% | 6.25% |

Once more, the final 4:

compound,CoaBC,MtTrpRS,ClpP1P2,LiHisRS,TcHisRS
CC1=C(C#N)C(=O)N(C)C(=O)/C1=C\C1=Cc2ccccc2OC1,0%,-0.6303%,1.451%,92.11%,0.5848%
CN(C)C(=O)c1cc(S(=O)(=O)N2CCCC2Cn2ccnc2)cn1C (configuration not stated),-,-4.85%,13.47%,22.86%,7.792%
c1cncc(CN2CCCCC2c2ccc(Nc3cnccn3)nc2)c1 (configuration not stated),-13.56%,-7.124%,-15.53%,14.08%,3.03%
COc1ccc(CN(C)Cn2cc(C)n(-c3cc(C)on3)c2=O)cc1,3.452%,-5.575%,3.575%,10.42%,6.25%

Measurements from “University of Dundee, Small-Polar-MMV Screening Library” (2021), ChEMBL document CHEMBL3988442.